Measured values as given in PMC3182238.
These are yes or no findings as the source states them, for the method shown. Binding seen in cells or lysates may run through a third protein. Some binding calls cover weakened binding; strength is not graded here.

Amino acid sequences for entries named in this document (tags omitted).
UniProt P04150: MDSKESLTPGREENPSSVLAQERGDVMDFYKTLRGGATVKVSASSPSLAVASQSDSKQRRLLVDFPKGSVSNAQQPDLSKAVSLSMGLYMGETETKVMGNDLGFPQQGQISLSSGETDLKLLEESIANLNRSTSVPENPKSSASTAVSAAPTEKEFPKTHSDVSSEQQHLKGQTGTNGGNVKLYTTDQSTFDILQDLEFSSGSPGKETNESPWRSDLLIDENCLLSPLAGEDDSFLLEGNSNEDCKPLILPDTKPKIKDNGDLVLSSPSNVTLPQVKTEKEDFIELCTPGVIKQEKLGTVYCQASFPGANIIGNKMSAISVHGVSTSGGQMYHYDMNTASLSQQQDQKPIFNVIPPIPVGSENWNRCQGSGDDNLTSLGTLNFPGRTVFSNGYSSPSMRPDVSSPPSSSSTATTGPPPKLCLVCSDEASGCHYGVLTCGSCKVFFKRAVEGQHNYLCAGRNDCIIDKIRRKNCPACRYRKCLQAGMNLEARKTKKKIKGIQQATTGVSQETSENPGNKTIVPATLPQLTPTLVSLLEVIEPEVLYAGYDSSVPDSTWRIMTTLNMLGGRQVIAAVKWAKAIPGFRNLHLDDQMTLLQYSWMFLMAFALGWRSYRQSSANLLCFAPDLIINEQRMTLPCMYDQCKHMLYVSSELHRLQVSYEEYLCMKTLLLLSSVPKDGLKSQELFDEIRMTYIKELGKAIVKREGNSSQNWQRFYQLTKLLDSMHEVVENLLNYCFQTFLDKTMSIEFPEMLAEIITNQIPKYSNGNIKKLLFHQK

Target: glucocorticoid receptor (GR) (human (endogenous in PBMCs)) (UniProt P04150)
Assay: co-IP; co-immunoprecipitation with anti-GR or control antibody from PBMCs (obtained at 6 am from healthy subjects) cultured ex vivo in the absence or presence of 5x10^-7 M hydrocortisone for 3 hours; Clock detected by Western blot

B1: circadian locomotor output cycle kaput (Clock) (protein, UniProt O15516 1-846)
chain: MLFTVSCSKMSSIVDRDDSSIFDGLVEEDDKDKAKRVSRNKSEKKRRDQFNVLIKELGSMLPGNARKMDKSTVLQKSIDFLRKHKEITAQSDASEIRQDWKPTFLSNEEFTQLMLEALDGFFLAIMTDGSIIYVSESVTSLLEHLPSDLVDQSIFNFIPEGEHSEVYKILSTHLLESDSLTPEYLKSKNQLEFCCHMLRGTIDPKEPSTYEYVKFIGNFKSLNSVSSSAHNGFEGTIQRTHRPSYEDRVCFVATVRLATPQFIKEMCTVEEPNEEFTSRHSLEWKFLFLDHRAPPIIGYLPFEVLGTSGYDYYHVDDLENLAKCHEHLMQYGKGKSCYYRFLTKGQQWIWLQTHYYITYHQWNSRPEFIVCTHTVVSYAEVRAERRRELGIEESLPETAADKSQDSGSDNRINTVSLKEALERFDHSPTPSASSRSSRKSSHTAVSDPSSTPTKIPTDTSTPPRQHLPAHEKMVQRRSSFSSQSINSQSVGSSLTQPVMSQATNLPIPQGMSQFQFSAQLGAMQHLKDQLEQRTRMIEANIHRQQEELRKIQEQLQMVHGQGLQMFLQQSNPGLNFGSVQLSSGNSSNIQQLAPINMQGQVVPTNQIQSGMNTGHIGTTQHMIQQQTLQSTSTQSQQNVLSGHSQQTSLPSQTQSTLTAPLYNTMVISQPAAGSMVQIPSSMPQNSTQSAAVTTFTQDRQIRFSQGQQLVTKLVTAPVACGAVMVPSTMLMGQVVTAYPTFATQQQQSQTLSVTQQQQQQSSQEQQLTSVQQPSQAQLTQPPQQFLQTSRLLHGNPSTQLILSAAFPLQQSTFPQSHHQQHQSQQQQQLSRHRTDSLPDPSKVQPQ
  binding: binds
